Values quoted from earlier work, collected in article PMC3511310, “In Vivo Imaging and Quantification of Carbonic Anhydrase IX Expression as an Endogenous Biomarker of Tumor Hypoxia” (PLoS ONE, 2012).

Target: hCA XIV
Parameters: method as in PMID 22079760
Details: stopped-flow CO2 hydration method

Compound: CC(=O)Nc1nnc(S(N)(=O)=O)s1 [AZ, acetazolamide]
- Ki: 41 nM
